Measured data: PubChem BioAssay AID1159584 (Peter MacCallum Cancer Centre, 2016)
Aim: 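Genes whose loss is lethal only together with E-cadherin loss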 (primary screen). Cells: human MCF10A breast epithelial cells, parental and CDH1-null. Reagents: siRNA against human genes. Detection: 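ATP luminescence (CellTiter-Glo) viability per line relative to mean mock wells over all plates, and the ratio of CDH1-null to parental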. Scale: CDH1-null / parental viability ratio: higher = CDH1-null cells survive relatively better than parental.
Shown is an unselected part of about 18,000 reagents. Further read-outs or replicates are left out here. No sequences are given here. Not stated in the record: the amount of reagent, the time to read-out.

| Gene | CDH1-null / parental viability ratio |
| --- | --- |
| TMEM177 (transmembrane protein 177) | 0.54 |
| SPAG16 (sperm associated antigen 16) | 0.92 |
| C5orf46 (chromosome 5 open reading frame 46) | 1.15 |
| ATF7IP2 (activating transcription factor 7 interacting protein 2) | 0.91 |
| ZNF76 (zinc finger protein 76) | 1.16 |
| ACTG1 (actin gamma 1) | 1.02 |
| PFAS (phosphoribosylformylglycinamidine synthase) | 0.88 |
| IRF2 (interferon regulatory factor 2) | 1 |
| MAFG (MAF bZIP transcription factor G) | 0.99 |
| PARVB (parvin beta) | 0.92 |
| EPHA3 (EPH receptor A3) | 0.9 |
| DYNLT3 (dynein light chain Tctex-type 3) | 1.05 |
| RALGDS (ral guanine nucleotide dissociation stimulator) | 0.8 |
| C22orf23 (chromosome 22 open reading frame 23) | 1.06 |
| GMNN (geminin DNA replication inhibitor) | 0.84 |
| TINF2 (TERF1 interacting nuclear factor 2) | 1.45 |
| IRAK2 (interleukin 1 receptor associated kinase 2) | 0.9 |
| SLC38A2 | 0.97 |
| SLC71A2 | 0.99 |
| TXNL1 (thioredoxin like 1) | 0.82 |
| PPM1F (protein phosphatase, Mg2+/Mn2+ dependent 1F) | 1.4 |
| CEP135 (centrosomal protein 135) | 1.15 |
| CCL5 (C-C motif chemokine ligand 5) | 0.87 |
| TMC3 (transmembrane channel like 3) | 1.03 |
| IL13RA1 (interleukin 13 receptor subunit alpha 1) | 1.06 |
| GSK3A (glycogen synthase kinase 3 alpha) | 0.87 |
| METRNL (meteorin like, glial cell differentiation regulator) | 0.73 |
| OR9A2 (olfactory receptor family 9 subfamily A member 2) | 1.1 |
| LAMB4 (laminin subunit beta 4) | 1.18 |
| LRP2 (LDL receptor related protein 2) | 0.91 |
| EIF4A1 (eukaryotic translation initiation factor 4A1) | 1.19 |
| CHAC2 (ChaC glutathione specific gamma-glutamylcyclotransferase 2) | 1 |
| PRAMEF12 (PRAME family member 12) | 0.97 |
| SEMA3F (semaphorin 3F) | 1.05 |
| CYP4V2 (cytochrome P450 family 4 subfamily V member 2) | 1.12 |
| NDUFB4 (NADH:ubiquinone oxidoreductase subunit B4) | 0.76 |
| IBTK (inhibitor of Bruton tyrosine kinase) | 1.13 |
| MGAT4B | 0.73 |
| LCNL1 (lipocalin like 1) | 1.56 |
| MTBP (MDM2 binding protein) | 1.15 |
| LSM7 | 1.55 |
| DENND3 (DENN domain containing 3) | 1.03 |
| GPR6 (G protein-coupled receptor 6) | 0.62 |
| RLN3 (relaxin 3) | 0.79 |
| FOXS1 (forkhead box S1) | 0.95 |
| EXOSC6 (exosome component 6) | 0.8 |
| DHRS9 (dehydrogenase/reductase 9) | 0.9 |
| RTL8A (retrotransposon Gag like 8A) | 1.84 |
| CXADR (CXADR cell adhesion molecule) | 0.83 |
| RAF1 (Raf-1 proto-oncogene, serine/threonine kinase) | 1.09 |
| TRIM62 (tripartite motif containing 62) | 0.98 |
| MAGEA1 (MAGE family member A1) | 0.87 |
| CLK3 (CDC like kinase 3) | 0.94 |
| OR51V1 (olfactory receptor family 51 subfamily V member 1) | 1.09 |
| JSRP1 (junctional sarcoplasmic reticulum protein 1) | 1.08 |
| CCDC59 (coiled-coil domain containing 59) | 0.96 |
| SNX31 (sorting nexin 31) | 0.74 |
| AQP6 (aquaporin 6) | 1.09 |
| OTUD6A (OTU deubiquitinase 6A) | 0.92 |
| H2AC15 (H2A clustered histone 15) | 0.77 |
| TEAD3 (TEA domain transcription factor 3) | 1.38 |
| TCTN1 (tectonic family member 1) | 0.9 |
| HDAC1 (histone deacetylase 1) | 1 |
| NOXRED1 (NADP dependent oxidoreductase domain containing 1) | 0.87 |
| SEMG1 (semenogelin 1) | 0.99 |
| IGF2 (insulin like growth factor 2) | 0.93 |
| CYP24A1 (cytochrome P450 family 24 subfamily A member 1) | 0.92 |
| ASAH2B (N-acylsphingosine amidohydrolase 2B) | 0.82 |

Ordered by “CDH1-null / parental viability ratio” (high to low): some entries from above
| Gene | CDH1-null / parental viability ratio |
| --- | --- |
| ZNF76 (zinc finger protein 76) | 1.16 |
| C5orf46 (chromosome 5 open reading frame 46) | 1.15 |
| DYNLT3 (dynein light chain Tctex-type 3) | 1.05 |
| ACTG1 (actin gamma 1) | 1.02 |
| IRF2 (interferon regulatory factor 2) | 1 |
| MAFG (MAF bZIP transcription factor G) | 0.99 |
| SPAG16 (sperm associated antigen 16) | 0.92 |
| PARVB (parvin beta) | 0.92 |
| ATF7IP2 (activating transcription factor 7 interacting protein 2) | 0.91 |
| EPHA3 (EPH receptor A3) | 0.9 |
| PFAS (phosphoribosylformylglycinamidine synthase) | 0.88 |
